The assay deals with NR2B subunit of the N-methyl-D aspartate receptor (NMDAR) (mouse (endogenous in mouse brain)) (UniProt Q01097). The assay is described as follows: co-IP; mouse brain (hippocampus) lysates incubated with the corresponding antibodies 3 h at 4 °C, protein A/G-Sepharose 1 h, immunoblot; mice given saline, a single convulsive dose of PTZ (50 mg/kg, tissue 3 min after) or repeated subconvulsive PTZ (35 mg/kg, tissue after the fourth injection). A general note: A western blot detects proteins with antibodies after separation by electrophoresis.

Sequences of proteins named here, by UniProt entry; tags and fusion partners are left off. Residues count along the entry.
UniProt Q01097, residues 27-1482: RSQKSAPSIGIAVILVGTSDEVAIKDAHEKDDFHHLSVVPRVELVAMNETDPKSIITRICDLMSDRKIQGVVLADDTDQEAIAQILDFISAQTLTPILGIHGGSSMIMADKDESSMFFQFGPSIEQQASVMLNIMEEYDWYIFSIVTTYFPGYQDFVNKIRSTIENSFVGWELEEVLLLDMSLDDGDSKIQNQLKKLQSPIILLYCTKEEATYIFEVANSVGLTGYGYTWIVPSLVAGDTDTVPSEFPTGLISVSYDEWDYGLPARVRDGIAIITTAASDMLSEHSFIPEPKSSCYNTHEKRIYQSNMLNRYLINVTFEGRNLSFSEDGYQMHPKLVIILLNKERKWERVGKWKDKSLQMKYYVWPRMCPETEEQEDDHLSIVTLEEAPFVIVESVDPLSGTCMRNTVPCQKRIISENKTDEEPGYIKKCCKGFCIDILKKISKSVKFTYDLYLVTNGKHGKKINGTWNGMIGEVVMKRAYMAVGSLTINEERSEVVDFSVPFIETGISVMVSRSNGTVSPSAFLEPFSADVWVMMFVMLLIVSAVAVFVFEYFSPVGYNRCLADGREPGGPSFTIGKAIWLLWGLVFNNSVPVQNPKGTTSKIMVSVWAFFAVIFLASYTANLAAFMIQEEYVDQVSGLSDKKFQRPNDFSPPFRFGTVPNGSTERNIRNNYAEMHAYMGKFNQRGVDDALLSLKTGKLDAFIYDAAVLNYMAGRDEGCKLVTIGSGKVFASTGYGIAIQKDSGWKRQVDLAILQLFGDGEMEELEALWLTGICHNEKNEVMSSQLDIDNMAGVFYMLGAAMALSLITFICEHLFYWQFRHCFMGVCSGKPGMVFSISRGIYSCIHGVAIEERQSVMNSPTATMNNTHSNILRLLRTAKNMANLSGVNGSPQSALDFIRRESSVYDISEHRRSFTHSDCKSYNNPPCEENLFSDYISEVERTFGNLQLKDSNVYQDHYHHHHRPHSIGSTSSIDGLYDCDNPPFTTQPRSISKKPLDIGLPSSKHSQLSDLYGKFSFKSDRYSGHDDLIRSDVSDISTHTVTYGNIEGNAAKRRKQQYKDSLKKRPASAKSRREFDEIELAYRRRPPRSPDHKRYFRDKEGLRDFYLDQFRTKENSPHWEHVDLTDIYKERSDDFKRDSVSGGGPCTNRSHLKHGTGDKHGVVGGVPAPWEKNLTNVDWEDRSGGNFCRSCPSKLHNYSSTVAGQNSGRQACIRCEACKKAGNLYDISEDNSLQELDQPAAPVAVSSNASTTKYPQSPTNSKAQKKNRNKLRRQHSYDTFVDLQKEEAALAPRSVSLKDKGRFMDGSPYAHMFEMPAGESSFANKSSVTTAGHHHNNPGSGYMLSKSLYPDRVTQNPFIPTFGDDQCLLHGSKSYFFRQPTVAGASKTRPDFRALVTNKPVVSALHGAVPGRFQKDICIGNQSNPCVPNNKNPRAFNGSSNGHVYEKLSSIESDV
UniProt Q80YE7: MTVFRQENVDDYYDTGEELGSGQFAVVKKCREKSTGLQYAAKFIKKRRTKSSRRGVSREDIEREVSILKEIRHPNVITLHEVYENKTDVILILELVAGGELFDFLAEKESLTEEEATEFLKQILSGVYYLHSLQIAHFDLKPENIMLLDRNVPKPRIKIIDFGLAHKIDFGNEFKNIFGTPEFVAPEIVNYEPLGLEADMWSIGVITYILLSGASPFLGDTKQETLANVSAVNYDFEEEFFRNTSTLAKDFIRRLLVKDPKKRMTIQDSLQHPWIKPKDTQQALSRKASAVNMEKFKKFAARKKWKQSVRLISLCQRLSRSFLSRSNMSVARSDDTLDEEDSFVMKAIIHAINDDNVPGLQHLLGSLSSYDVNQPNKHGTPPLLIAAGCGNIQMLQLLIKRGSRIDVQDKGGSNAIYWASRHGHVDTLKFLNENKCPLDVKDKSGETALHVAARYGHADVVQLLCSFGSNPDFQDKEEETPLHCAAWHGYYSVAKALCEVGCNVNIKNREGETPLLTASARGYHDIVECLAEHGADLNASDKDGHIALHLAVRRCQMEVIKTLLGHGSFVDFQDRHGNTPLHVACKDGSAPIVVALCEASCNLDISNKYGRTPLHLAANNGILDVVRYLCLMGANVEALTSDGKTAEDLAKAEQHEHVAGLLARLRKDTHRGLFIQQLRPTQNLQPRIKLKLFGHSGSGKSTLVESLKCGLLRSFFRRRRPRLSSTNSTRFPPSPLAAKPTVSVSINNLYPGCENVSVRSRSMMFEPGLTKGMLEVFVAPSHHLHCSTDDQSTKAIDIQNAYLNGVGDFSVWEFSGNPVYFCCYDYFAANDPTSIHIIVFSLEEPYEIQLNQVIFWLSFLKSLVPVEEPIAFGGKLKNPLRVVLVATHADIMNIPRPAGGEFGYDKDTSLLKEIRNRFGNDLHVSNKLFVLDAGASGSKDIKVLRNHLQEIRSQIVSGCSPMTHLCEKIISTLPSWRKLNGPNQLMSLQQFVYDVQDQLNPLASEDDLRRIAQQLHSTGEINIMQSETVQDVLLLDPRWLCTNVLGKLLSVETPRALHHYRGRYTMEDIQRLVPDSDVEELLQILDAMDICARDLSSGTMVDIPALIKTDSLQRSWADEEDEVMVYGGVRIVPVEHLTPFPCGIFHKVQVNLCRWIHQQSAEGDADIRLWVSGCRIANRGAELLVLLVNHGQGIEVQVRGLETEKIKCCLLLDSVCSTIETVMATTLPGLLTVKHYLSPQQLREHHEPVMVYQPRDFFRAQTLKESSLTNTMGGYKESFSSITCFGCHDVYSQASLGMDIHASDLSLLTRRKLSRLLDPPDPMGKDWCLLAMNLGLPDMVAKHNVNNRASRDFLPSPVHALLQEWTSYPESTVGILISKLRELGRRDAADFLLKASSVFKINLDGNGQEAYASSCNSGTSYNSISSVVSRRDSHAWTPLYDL

In PMC8241737 one finds binding data, which are given here for one substance.

Results are given in words; binding and its absence hold for the method and conditions named. Binding seen in cells or lysates may run through a third protein. Some binding calls cover weakened binding; strength is not graded here.

On to “Death-associated protein kinase 1 (from UniProt Q80YE7 1-1442) (enzyme)”, for which the binding entry is reported as “binds”.
